Some of the results follow. The main result of the screen is listed elsewhere. These columns were measured beside it and carry no call. Compounds called inactive in the main read-out are mostly missing here. The note in brackets gives the kind of curve behind each potency; many fits are weak.
Assay: qHTS Assay for Lipid Storage Modulators in Drosophila S3 Cells;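 on cell number change: cells counted by Cell Tracker Red CMTPX staining in the red channel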
Settings: BODIPY lipid droplet fluorescence, 18-24 h; for cell number change: measured here: cell count max response, cells fed with added oleic acid
Outline: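 Drosophila S3 cells got compounds at several concentrations plus oleic acid (400 uM solution). Laser-scanning cytometry with 488 nm excitation read lipid droplets at 500-530 nm and cells at 575-640 nm. Percent activity was relative to 20 uM Triacsin C.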

[1] = measured here: lipid fluorescence (Fed channel) AC50, cells fed with added oleic acid
[2] = measured here: cell number channel AC50, cells fed with added oleic acid

SMILES | cell number change [%] | AC50 [1] | AC50 [2]
CC(C)N1C(=O)C2C(C(=O)NCc3ccccc3)C3C=CC2(O3)C1C(=O)NC(C)(C)C (stereo not given) | -4.32 |  | 
CCS(=O)(=O)c1nc(S(=O)(=O)c2ccc(Cl)cc2)c(N2CCCC2)s1 | -20.3 | 18.4 µM [rising, partial curve] | 
O=C(Nc1ccccc1Cl)c1cccc(NS(=O)(=O)c2ccccc2)c1 | -28.1 |  | 0.58 µM [falling, full curve, poor fit]
CC1CCN(C(=O)c2ccc(COc3ccccc3Cl)o2)CC1 | 80.1 |  | 3.26 µM [falling, partial curve]
CN1c2ccccc2-c2nc3ccccc3n2C1c1ccccn1 (stereo not given) | -21.5 |  | 
N#CCCN(C(=O)COC(=O)C1=NNC(=O)CC1)c1ccccc1 | -27.3 |  | 
COCCNC(=O)C1CC2Cn3c(nc4ccccc43)C2N1C (stereo not given) | 3.57 | 4.11 µM [rising, partial curve, poor fit] | 
COc1ccc(-c2noc(-c3ccccc3-c3ccccc3)n2)cc1OC |  | 1.16 µM [rising, full curve] | 0.13 µM [rising, full curve, poor fit]
COc1ccc(S(=O)(=O)Nc2nnc(CC(C)C)s2)cc1 | -45.7 | 3.66 µM [falling, full curve] | 0.116 µM [falling, full curve]
C/C(=N\Nc1nc(N)cc(Cl)n1)c1cccc([N+](=O)[O-])c1 | -10.2 | 14.6 µM [falling, single point] | 
Cc1cc(C)c(Cn2ncn(-c3ccc(Br)cc3)c2=O)c(C)c1 | -31.2 | 32.6 µM [falling, single point] | 29.1 µM [falling, single point]
Cc1ccc(C)n1-c1ccccc1N1CCCCC1 | -39.7 |  | 10.3 µM [falling, single point]
CCCCC(=O)NC(c1ccc(OC)c(OC)c1)c1c(O)ccc2ccccc12 (stereo not given) | -19.3 | 0.731 µM [falling, full curve, poor fit] | 
O=C(N/N=C/c1ccccn1)c1cccc([N+](=O)[O-])c1 |  | 0.58 µM [falling, single point] | 
COc1cc(OC)cc(C(=O)OCC(=O)NC2CCCCCC2)c1 | -2.38 | 2.06 µM [rising, partial curve] | 
Cc1ccc2nc(-c3ccccn3)oc2c1 | 35.7 | 6.51 µM [rising, partial curve] | 2.91 µM [rising, full curve]
COc1ccccc1N1CCN(c2ccnc3cc(Cl)ccc23)CC1 |  | 29.1 µM [falling, partial curve, poor fit] | 
COc1ccc(C)cc1NC(=O)CNC(c1ccccc1)c1ccccc1 | 17 |  | 
Cc1ccc(NC(=S)N2CCN(S(=O)(=O)c3ccc(C)cc3)CC2)cc1 | 40.5 |  | 5.17 µM [rising, full curve, poor fit]
COc1cc(OC)cc(C(=O)Nc2ccn(C)n2)c1 | -11.8 | 32.6 µM [rising, single point] | 

SMILES | cell number change [%] | AC50 [1] | AC50 [2]
COc1ccc2cc(C)c3nnc(SCC(=O)Nc4cc(OC)c(OC)cc4C(=O)O)n3c2c1 |  | 4.11 µM [falling, single point] | 
O=C(Nc1ccc(S(=O)(=O)N2CCCCC2)cc1)c1ccco1 | -19.2 |  | 
COc1ccc(C(=O)NCC2OCCc3ccccc32)c(O)c1 (stereo not given) | -12.4 | 6.51 µM [rising, single point] | 
O=C(CCN1C(=O)/C(=C\c2ccccc2)SC1=S)NNC(=O)c1ccccc1O | 21.2 | 6.51 µM [rising, single point] | 
Cc1cc(C(=O)OCC(=O)N2CC(C)CC(C)C2)c(C)o1 (stereo not given) | 13.2 | 0.731 µM [falling, full curve, poor fit] | 
Cc1ccc(C)c(NC(=O)COC(=O)c2c(C)nn(-c3ccccc3)c2C)c1 | -1.69 | 20.6 µM [rising, partial curve, poor fit] | 
Cc1cc(-c2n[nH]c(=S)n2Cc2ccco2)n(C)n1 | 4.71 | 1.64 µM [rising, partial curve, poor fit] | 
Cc1cccc(NC(=O)CSCC(=O)NCc2ccco2)c1 | -30.1 | 2.91 µM [rising, single point] | 29.1 µM [falling, single point]
CCOCCCNC(=O)c1ccc(Cn2c(=O)[nH]c3ccsc3c2=O)cc1 | 17.9 | 0.461 µM [falling, single point] | 
Cc1cccc(NC(=O)c2ccc(Cl)c(S(=O)(=O)N3CCCC3)c2)n1 | 6.33 |  | 
CCOCCCNC(=O)c1cc2c(-c3ccc(Cl)cc3)nn(C)c2s1 | 41.4 | 6.51 µM [rising, partial curve] | 0.58 µM [rising, full curve]
Cc1ccc(Cl)cc1N1CCN(C(c2ccc(C#N)cc2)c2nnnn2C2CCCC2)CC1 (stereo not given) | -20.1 | 23.1 µM [rising, single point] | 
CN(C)CC1CCCCC1OC(=O)/C=C/c1ccccc1 (stereo not given) | -15.2 | 1.3 µM [falling, full curve] | 
CN(C)S(=O)(=O)c1ccc(Nc2nc(C3CC3)nc3c2nnn3Cc2ccccc2Cl)cc1 | 11.5 | 14.6 µM [falling, single point] | 
Cc1cc(C)cc(OCC(=O)N/N=C\c2cn(C)nc2C)c1 | 2.73 | 1.84 µM [rising, full curve] | 
O=C(N/N=C/c1ccccn1)c1ccc(Br)cc1 | -19.3 | 29.1 µM [falling, single point] | 
CCOC(=O)c1c(NC(=O)CSc2nnc(-c3cccc(C)c3)n2CC)sc(C(C)=O)c1C | -21.5 | 13 µM [falling, partial curve, poor fit] | 
CCCc1[nH]n(-c2ccc(F)cc2)c(=O)c1C=Nc1cccc(F)c1 | -24.7 | 0.0651 µM [rising, full curve, poor fit] | 
COc1ccc([C@H]2CC(=O)C=C(/C=C/c3ccccc3)C2)cc1OC | -8.1 | 0.00461 µM [falling, full curve, poor fit] | 0.00517 µM [falling, full curve, poor fit]
Cc1ccc(Cl)cc1N1CCN(C(=O)C2CCN(S(=O)(=O)c3cccnc3)CC2)CC1 | 24.6 |  | 0.146 µM [rising, full curve, poor fit]

SMILES | cell number change [%] | AC50 [1] | AC50 [2]
C=CCn1c(CCNC(=O)c2ccccc2F)nnc1SCC(=O)Nc1ccc(OC)cc1 | -30.1 |  | 
Cc1ccccc1CNC(=O)CCNS(=O)(=O)c1ccc(OC(F)(F)F)cc1 | 10.2 | 0.116 µM [falling, full curve, poor fit] | 
Cc1ccc(C(=O)C(=S)N2CCOCC2)cc1 | 130 | 5.8 µM [falling, full curve, poor fit] | 29.1 µM [rising, single point]
CC1Cc2ccccc2N1C(=O)CN1C(=O)NC2(CCCCC2)C1=O (stereo not given) | -39.4 | 29.1 µM [falling, single point] | 29.1 µM [falling, single point]
NNC(=O)c1oc2nc(-c3cccs3)cc(-c3ccco3)c2c1N | 440 |  | 23.1 µM [rising, partial curve]
CCOC(=O)c1ccc[n+](CC(=O)c2ccc(NC(=O)c3ccccc3)cc2)c1 |  | 6.51 µM [falling, partial curve, poor fit] | 0.082 µM [falling, full curve, poor fit]
Cc1ccc(S(=O)(=O)N2CCOCC2)cc1NC(=O)COC(=O)c1ccc(OCc2c(C)noc2C)cc1 | 38.7 | 32.6 µM [rising, single point] | 29.1 µM [rising, single point]
Cc1cccc(N2C(=O)CC(N3CCN(c4cccc(C(F)(F)F)c4)CC3)C2=O)c1 (stereo not given) | -17.3 | 29.1 µM [rising, single point] | 
COC(=O)C(Cc1ccccc1)NC(=O)CNS(=O)(=O)c1ccc(Br)cc1 (stereo not given) | 16.4 |  | 
COC(=O)CC(=O)CSc1nc2c(cc1C#N)CCC2 | 2.7 | 9.2 µM [rising, partial curve] | 
COc1cc(/C=C2/C(=N)N3N=C(CC(=O)N4CCOCC4)SC3=NC2=O)ccc1OCc1ccccc1 | 28.7 | 29.1 µM [rising, single point] | 
Cc1oc(C(=O)O)cc1CSCc1ccoc1C(=O)O | -33.7 | 25.9 µM [falling, partial curve] | 29.1 µM [falling, partial curve, poor fit]
COc1ccc(S(=O)(=O)N2CCOC23CCN(C(=O)c2ccccc2Br)CC3)cc1 | 40.3 |  | 20.6 µM [rising, partial curve]
COc1ccc(Nc2cc(C)c3ccc(O)cc3n2)cc1 |  |  | 0.58 µM [rising, single point]
COc1ccc2nc(NC(=O)CS(=O)(=O)c3ccc(C)cc3)sc2c1 | 19.7 | 29.1 µM [falling, single point] | 
COc1ccc(NC(=O)CSc2nc3ccccc3nc2N2CCOCC2)cc1 | -10.7 | 29.1 µM [falling, single point] | 
Cn1nnc(NC(=O)c2ccc([N+](=O)[O-])cc2Cl)n1 | -7.01 |  | 0.103 µM [falling, full curve, poor fit]
CC(C)(C)c1ccc(NC(=O)COC(=O)c2ccc(CN3CCCC3=O)cc2)cc1 | 11.7 | 18.4 µM [rising, partial curve, poor fit] | 
CCN1CCN(C(=O)c2cc(COc3ccc(C(C)=O)cc3OC)on2)CC1 | -4.58 |  | 

Shown tab-delimited: eleven of the compounds above.
SMILES	cell number change [%]	AC50 [1]	AC50 [2]
Cc1ccccc1CNC(=O)CCNS(=O)(=O)c1ccc(OC(F)(F)F)cc1	10.2	0.116 µM [falling, full curve, poor fit]	
Cc1ccc(C(=O)C(=S)N2CCOCC2)cc1	130	5.8 µM [falling, full curve, poor fit]	29.1 µM [rising, single point]
CCOC(=O)c1ccc[n+](CC(=O)c2ccc(NC(=O)c3ccccc3)cc2)c1		6.51 µM [falling, partial curve, poor fit]	0.082 µM [falling, full curve, poor fit]
COC(=O)CC(=O)CSc1nc2c(cc1C#N)CCC2	2.7	9.2 µM [rising, partial curve]	
COc1cc(/C=C2/C(=N)N3N=C(CC(=O)N4CCOCC4)SC3=NC2=O)ccc1OCc1ccccc1	28.7	29.1 µM [rising, single point]	
Cc1oc(C(=O)O)cc1CSCc1ccoc1C(=O)O	-33.7	25.9 µM [falling, partial curve]	29.1 µM [falling, partial curve, poor fit]
COc1ccc(Nc2cc(C)c3ccc(O)cc3n2)cc1			0.58 µM [rising, single point]
COc1ccc(NC(=O)CSc2nc3ccccc3nc2N2CCOCC2)cc1	-10.7	29.1 µM [falling, single point]	
Cn1nnc(NC(=O)c2ccc([N+](=O)[O-])cc2Cl)n1	-7.01		0.103 µM [falling, full curve, poor fit]
CC(C)(C)c1ccc(NC(=O)COC(=O)c2ccc(CN3CCCC3=O)cc2)cc1	11.7	18.4 µM [rising, partial curve, poor fit]	
CCN1CCN(C(=O)c2cc(COc3ccc(C(C)=O)cc3OC)on2)CC1	-4.58		

Source: PubChem BioAssay AID2685 (National Center for Advancing Translational Sciences (NCATS), 2010)
